Binding data for one molecule are collected here from paper PMC10060162, “Structural basis of mitochondrial membrane bending by the I–II–III2–IV2 supercomplex” (Nature, 2023).

For this test, the target named is T1, COX3b (Tetrahymena thermophila) (UniProt Q950Y6).
T1 sequence: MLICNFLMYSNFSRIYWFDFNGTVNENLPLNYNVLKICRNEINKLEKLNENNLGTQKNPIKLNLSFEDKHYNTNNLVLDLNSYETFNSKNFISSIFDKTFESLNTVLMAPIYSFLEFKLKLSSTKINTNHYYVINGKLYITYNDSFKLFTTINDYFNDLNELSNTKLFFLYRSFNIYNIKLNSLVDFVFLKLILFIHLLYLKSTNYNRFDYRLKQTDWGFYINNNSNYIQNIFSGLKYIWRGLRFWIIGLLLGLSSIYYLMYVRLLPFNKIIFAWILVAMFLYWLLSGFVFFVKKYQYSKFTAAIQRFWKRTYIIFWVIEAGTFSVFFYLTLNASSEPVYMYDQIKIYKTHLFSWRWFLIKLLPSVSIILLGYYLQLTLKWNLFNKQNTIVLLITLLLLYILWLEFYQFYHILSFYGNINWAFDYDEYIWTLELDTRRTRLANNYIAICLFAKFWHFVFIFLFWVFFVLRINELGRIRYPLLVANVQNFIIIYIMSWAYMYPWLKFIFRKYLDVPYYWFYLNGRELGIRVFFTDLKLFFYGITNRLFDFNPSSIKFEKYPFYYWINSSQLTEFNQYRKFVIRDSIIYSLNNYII
Description: cryo-EM structure; single-particle cryo-EM of the native supercomplex co-purified from T. thermophila mitochondria; buffer D (25 mM HEPES-KOH pH 7.5, 25 mM KCl, 5 mM MgCl2, 0.1% w/v digitonin); 2.9 Å overall, masked refinements 2.6-3.0 Å; both purified.

These are yes or no findings as the source states them, for the method shown. Some results given as binding are weak or reduced against the parent protein; the word gives no strength.

B1: COX3a (protein, UniProt Q950Y7 1-453)
chain: MTALFLHILWSISYIIINILYIFLSLLLSNNNEKIKQYNSNYFIKILLVLFYNKNLSFYKNLLSEDEISKIEFERLKNYPTLVLIHSNLNKLEKRNKIINSFINFKTKYRFYKFISTNFNLQTIIKNCNDKIIFSTLLYIVNLNYSFFYKTIKNTDLIVYLLANKFSILNDNIIVSKFNISKFNDYIKYINNTNSIDTYLENQIILGLNNNTNSNITKNINTKLLNSYSNLKNLVNITNNTFYLKKINDNYNTVINSEFLTYLKSNYKISFSASNIVKYLSDKSVNNSVILYLRKNKIFNKSRYSRNRQTYRTGAYWCLYVNIIAVVAFYFWFYKFTMNFGYLWWLLYSLILSFFFSRALKHRFYNPLNVMTEFKNGFMWFIIILINIFKPLLKLLENNYINLYNHLVIKYYQSFICNTLINKKKLEFNYILSSFKFIKELNNIIIISLNKLF
Take B1: the binding entry is listed as “binds”.
